The list shows a part of the results. The main result of the screen is listed elsewhere. These columns were measured beside it and carry no call. The list favours compounds with an active or inconclusive main result. Words in brackets tell the shape of the fitted curve; partial curves, single points and poor fits give uncertain potencies.

Results on 19 molecules are retold here after PubChem BioAssay AID2685 (National Center for Advancing Translational Sciences (NCATS), 2010).

The experiment can be described thus: qHTS Assay for Lipid Storage Modulators in Drosophila S3 Cells.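 As to cell number change: cells counted by Cell Tracker Red CMTPX staining in the red channel.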 As to conditions: BODIPY lipid droplet fluorescence, 18-24 h; for cell number change: measured here: cell count max response, cells fed with added oleic acid. The method in brief: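 Drosophila S3 cells got compounds at several concentrations plus oleic acid (400 uM solution). Laser-scanning cytometry with 488 nm excitation read lipid droplets at 500-530 nm and cells at 575-640 nm. Percent activity was relative to 20 uM Triacsin C.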

[1] abbreviates: measured here: lipid fluorescence (Fed channel) AC50, cells fed with added oleic acid.
Setting [2] is: measured here: cell number channel AC50, cells fed with added oleic acid.

Consider `Cc1c(NC(=O)CSc2nnnn2-c2ccc(O)cc2)c(=O)n(-c2ccccc2)n1C`, for which the cell number change was 9.93%. Moreover, the AC50 under setting [1] is 2.31 µM [falling, partial curve].
In the case of `N#Cc1ccsc1NC(=O)CCS(=O)(=O)c1ccccc1`, the cell number change is -0.867%. The concentration at half-maximal activity (AC50) under setting [1] was 0.184 µM [rising, full curve, poor fit].
For `Cc1cccc(Nc2ccccc2)c1`, the cell number change is -20.8%.
`CC(Sc1nc2c(cc1C#N)CCCCC2)C(=O)O` (configuration not stated): the concentration at half-maximal activity (AC50) under setting [1] is 0.112 µM [rising, full curve].
Take `C=C(C)C(=O)OCC(=O)NCc1ccccc1`: the half-maximal activity concentration (AC50) under setting [2] is 6.51 µM [rising, single point].
In the case of `CCCC(=O)Nc1ccc(C(=O)/C=C/c2ccc(SC)cc2)cc1`, the cell number change is -13.6%.
In the case of `CCCc1cc(=O)[nH]c(SCC(=O)NC2(C#N)CCCCC2)n1`, the cell number change came out at 8.21%.
With `Cc1cc(NC(=O)c2c(-c3c(Cl)cccc3Cl)noc2C)n(C)n1`, the cell number change was determined as 0.925%.
Take `CCOc1cccc(-c2nnc3sc(-c4ccco4)nn23)c1`: the cell number change is -9.3%. Also, the concentration at half-maximal activity (AC50) under setting [1] is 0.00461 µM [rising, full curve, poor fit].
Regarding `CC(CNC(=O)c1cc(COc2c(F)cccc2F)on1)c1ccccc1` (configuration not stated), the cell number change is -6.36%. Also, the concentration at half-maximal activity (AC50) under setting [1] was 18.4 µM [falling, single point].
`Cc1cccc(-c2oc3ccc(-c4ccc5c(c4)OCO5)cc3c2C#Cc2cncn2C)c1`: the cell number change is -16.2%. In addition, under setting [1], the concentration at half-maximal activity (AC50) is 5.17 µM [falling, single point].
`CCCCC(=O)Nc1ccc(NC(=S)NC(=O)CC(C)C)cc1OC`: the cell number change was -12.1%. The AC50 under setting [2] was 2.06 µM [falling, single point]. In addition, under setting [1], the AC50 was 4.61 µM [falling, full curve].
Turning to `COc1ccc(N2CCN(C(=O)C3CCCN3S(=O)(=O)c3cccc4nsnc34)CC2)cc1` (configuration not stated), the concentration at half-maximal activity (AC50) under setting [1] is 0.651 µM [rising, single point].
As for `[N-]=[N+]=NCCN1CCN(Cc2ccccc2)CCC1=O`, the cell number change is 12.6%. In addition, the AC50 under setting [1] is 1.3 µM [falling, full curve, poor fit].
`CCOc1ccc(CNc2ccc(N3CCOCC3)c(C(=O)O)c2)cc1`: the cell number change stood at 5.18%. Besides, the half-maximal activity concentration (AC50) under setting [2] was 0.411 µM [falling, partial curve, poor fit].
In the case of `COc1ccc(/C=C2/CCc3ccccc3C2=O)cc1OC`, the cell number change stood at 11.2%. Also, the AC50 under setting [1] is 1.84 µM [rising, full curve].
As to `COc1ccc(Nc2oc(-c3ccccc3)nc2C#N)cc1`, the cell number change stood at 20.1%. The AC50 under setting [2] was 0.092 µM [rising, full curve, poor fit]. Further, the AC50 under setting [1] is 0.13 µM [rising, single point].
With `CCn1cc(Cl)c(C(=O)Nc2nc3ccccc3n2CCN2CCCCC2)n1`, the cell number change came out at 3.94%.
Consider `O=S(=O)(c1cccs1)N1CCN(CC(O)COc2cc(Cl)ccc2Cl)CC1` (configuration not stated), for which the cell number change was -29.2%. For the same molecule, the concentration at half-maximal activity (AC50) under setting [2] is 0.731 µM [rising, partial curve].
